Where two headings read alike, the source gives them in different places. For some assays here: At least one compound was matched to its structure with a doubt left. Some entries share one result that the patent states for a list of compounds.
Columns and labels:
E. coli [1] = conditions: cited from earlier work
K. pneumoniae = K. pneumoniae CCARM 10143; cited from earlier work
E. coli [2] = assay: Checkerboard assay (MIC in combination, FIC index); assay type: cell-based, Escherichia coli; conditions: endolysin alone (Table 3)
Experimental: LNT113 was vertically diluted 2-fold and the antibiotic was serially diluted horizontally in a 96-well plate. Bacterium at a concentration of 10^6 CFU/ml were added to each well in a CAA medium. […] The fractional inhibitory concentration (FIC) for the LNT113 or antibiotic was calculated by dividing the MIC of two drugs by combining it with the MIC of each drug alone. […] The FICI was considered as a synergistic effect ≤0.5, an additive >0.5 ˜≤1, an independent effect (indifference)>1.0 ˜≤2, and an antagonistic effect (antagonism) >2.

Molecule	MIC of antibiotics (E. coli [1]; E. coli CCARM 1A746) [µg/mL]	MIC of antibiotics (E. coli [1]; E. coli CCARM 1B684) [µg/mL]	MIC of antibiotics (K. pneumoniae) [µg/mL]	MIC for endolysin (E. coli [2]) [mg/mL]
CN(C)[C@@H]1C(O)=C(C(N)=O)C(=O)[C@@]2(O)C(O)=C3C(=O)c4c(O)cccc4[C@@](C)(O)[C@H]3C[C@@H]12 [Tetracycline]	128	≥128	2	–
EC340: endolysin of E. coli bacteriophage PBEC131 (EC340-M-11-12), 162 amino acids (protein, synthetic_EC340, endolysin of E. coli bacteriophage PBEC131 (EC340-M-11-12), 162 amino acids) VSRNISNNGIKFTAAFEGFRGTAYRATPNEKYLTIGYGHYGPDVTPGKTITPGQGLLLLNRDMAKAVAAVDAAAHHSLTQAQFDAVCDLVYNAGAGVIAATTGTGKALRSGDIATLRAKLALFINQNGKPLLGLRRRTAGRLALFDGKPWQEAEAIGRAVKG	–	–	–	> 128
mtEC340: mutant EC340 with H39S, D43H, T45E, A73V, A81S, T101A and I113V (protein, synthetic_mtEC340, mutant EC340 with H39S, D43H, T45E, A73V, A81S, T101A and I113V) VSRNISNNGIKFTAAFEGFRGTAYRATPNEKYLTIGYGSYGPHVEPGKTITPGQGLLLLNRDMAKAVAAVDAVAHHSLTQSQFDAVCDLVYNAGAGVIAAATGTGKALRSGDVATLRAKLALFINQNGKPLLGLRRRTAGRLALFDGKPWQEAEAIGRAVKG	–	–	–	> 128

— patent publication US12102667B2, “Polypeptides and antibiotics against gram-negative bacterium comprising the same” (priority 2021, dated 2024)
